# Source: the supplement of paper PMC6411743
# Sequences of proteins named here, by UniProt entry; tags and fusion partners are left off. A change or cut given only in a name is not applied to a line headed by its entry.
# UniProt P25685, whole entry: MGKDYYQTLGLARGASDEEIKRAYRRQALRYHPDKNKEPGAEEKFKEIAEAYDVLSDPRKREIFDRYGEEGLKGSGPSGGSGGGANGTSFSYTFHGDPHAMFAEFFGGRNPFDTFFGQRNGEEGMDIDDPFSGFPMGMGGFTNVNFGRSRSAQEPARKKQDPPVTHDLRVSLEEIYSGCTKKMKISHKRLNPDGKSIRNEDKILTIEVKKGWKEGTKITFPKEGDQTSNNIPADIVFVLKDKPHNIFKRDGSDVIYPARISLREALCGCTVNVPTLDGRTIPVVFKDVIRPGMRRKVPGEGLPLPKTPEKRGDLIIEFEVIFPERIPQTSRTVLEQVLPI
# UniProt P22670: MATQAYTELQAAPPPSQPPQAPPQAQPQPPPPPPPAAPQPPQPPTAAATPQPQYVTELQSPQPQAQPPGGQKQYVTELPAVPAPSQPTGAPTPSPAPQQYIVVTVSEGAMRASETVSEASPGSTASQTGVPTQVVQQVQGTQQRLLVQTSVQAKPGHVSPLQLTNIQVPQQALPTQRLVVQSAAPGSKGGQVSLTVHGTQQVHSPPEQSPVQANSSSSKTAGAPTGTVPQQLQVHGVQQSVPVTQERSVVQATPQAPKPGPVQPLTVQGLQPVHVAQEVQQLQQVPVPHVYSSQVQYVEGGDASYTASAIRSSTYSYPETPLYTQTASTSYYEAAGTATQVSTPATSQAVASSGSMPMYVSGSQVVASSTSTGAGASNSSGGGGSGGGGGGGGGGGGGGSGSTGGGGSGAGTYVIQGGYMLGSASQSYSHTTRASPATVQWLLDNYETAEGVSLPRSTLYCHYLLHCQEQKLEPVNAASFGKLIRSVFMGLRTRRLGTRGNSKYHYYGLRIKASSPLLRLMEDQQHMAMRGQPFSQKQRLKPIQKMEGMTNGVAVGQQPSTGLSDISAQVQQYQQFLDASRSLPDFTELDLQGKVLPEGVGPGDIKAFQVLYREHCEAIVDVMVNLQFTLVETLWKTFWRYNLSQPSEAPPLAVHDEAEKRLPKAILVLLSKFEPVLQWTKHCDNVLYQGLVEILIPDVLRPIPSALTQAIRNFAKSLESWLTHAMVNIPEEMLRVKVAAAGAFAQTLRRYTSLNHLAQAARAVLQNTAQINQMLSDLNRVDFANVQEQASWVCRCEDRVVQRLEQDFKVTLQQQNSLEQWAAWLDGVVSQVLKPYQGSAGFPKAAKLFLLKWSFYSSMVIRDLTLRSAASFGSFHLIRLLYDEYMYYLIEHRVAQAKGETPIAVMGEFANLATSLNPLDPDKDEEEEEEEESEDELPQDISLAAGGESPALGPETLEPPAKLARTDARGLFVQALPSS
# UniProt P29083: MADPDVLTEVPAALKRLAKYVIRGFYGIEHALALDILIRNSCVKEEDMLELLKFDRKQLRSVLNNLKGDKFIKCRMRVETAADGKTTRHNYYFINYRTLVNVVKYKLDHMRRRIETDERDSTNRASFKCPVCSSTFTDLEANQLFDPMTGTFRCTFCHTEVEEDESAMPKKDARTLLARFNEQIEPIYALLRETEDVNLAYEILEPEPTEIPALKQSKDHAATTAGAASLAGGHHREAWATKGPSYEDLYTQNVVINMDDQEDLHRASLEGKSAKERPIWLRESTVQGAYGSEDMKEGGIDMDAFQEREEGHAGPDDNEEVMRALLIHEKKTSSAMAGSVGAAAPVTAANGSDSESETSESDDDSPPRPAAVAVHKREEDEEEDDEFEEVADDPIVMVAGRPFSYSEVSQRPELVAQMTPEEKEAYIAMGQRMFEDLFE
# UniProt P24386: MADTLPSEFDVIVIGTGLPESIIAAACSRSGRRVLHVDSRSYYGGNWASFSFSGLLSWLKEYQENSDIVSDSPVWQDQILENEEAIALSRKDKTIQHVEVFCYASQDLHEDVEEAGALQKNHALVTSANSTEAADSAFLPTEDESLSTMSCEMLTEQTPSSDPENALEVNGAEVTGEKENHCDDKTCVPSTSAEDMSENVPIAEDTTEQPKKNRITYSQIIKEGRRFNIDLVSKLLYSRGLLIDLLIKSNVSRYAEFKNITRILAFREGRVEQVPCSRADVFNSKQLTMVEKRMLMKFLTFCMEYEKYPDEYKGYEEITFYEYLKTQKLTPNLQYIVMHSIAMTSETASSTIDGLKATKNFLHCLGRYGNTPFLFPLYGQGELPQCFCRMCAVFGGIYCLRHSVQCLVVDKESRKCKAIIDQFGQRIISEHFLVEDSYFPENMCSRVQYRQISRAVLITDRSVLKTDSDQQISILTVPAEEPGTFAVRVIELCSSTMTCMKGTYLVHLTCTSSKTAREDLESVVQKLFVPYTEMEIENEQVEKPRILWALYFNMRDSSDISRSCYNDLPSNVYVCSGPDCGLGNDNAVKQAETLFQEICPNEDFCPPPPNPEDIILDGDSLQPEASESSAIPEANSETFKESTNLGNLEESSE
# UniProt P27824: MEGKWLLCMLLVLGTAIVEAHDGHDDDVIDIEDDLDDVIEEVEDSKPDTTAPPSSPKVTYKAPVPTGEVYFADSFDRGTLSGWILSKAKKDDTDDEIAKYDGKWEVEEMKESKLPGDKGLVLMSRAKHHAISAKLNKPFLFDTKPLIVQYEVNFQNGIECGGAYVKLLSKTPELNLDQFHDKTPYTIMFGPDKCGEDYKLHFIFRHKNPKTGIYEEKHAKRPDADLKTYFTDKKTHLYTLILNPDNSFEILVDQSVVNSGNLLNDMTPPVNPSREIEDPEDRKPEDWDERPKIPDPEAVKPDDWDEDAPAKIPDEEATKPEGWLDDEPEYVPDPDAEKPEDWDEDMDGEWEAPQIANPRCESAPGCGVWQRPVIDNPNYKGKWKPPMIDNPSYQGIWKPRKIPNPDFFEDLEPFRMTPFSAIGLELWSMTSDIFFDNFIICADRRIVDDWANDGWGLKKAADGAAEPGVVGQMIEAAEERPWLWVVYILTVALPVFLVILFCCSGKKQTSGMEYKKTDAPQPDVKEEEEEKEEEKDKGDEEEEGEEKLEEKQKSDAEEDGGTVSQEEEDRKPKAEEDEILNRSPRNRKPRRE
# UniProt P24539: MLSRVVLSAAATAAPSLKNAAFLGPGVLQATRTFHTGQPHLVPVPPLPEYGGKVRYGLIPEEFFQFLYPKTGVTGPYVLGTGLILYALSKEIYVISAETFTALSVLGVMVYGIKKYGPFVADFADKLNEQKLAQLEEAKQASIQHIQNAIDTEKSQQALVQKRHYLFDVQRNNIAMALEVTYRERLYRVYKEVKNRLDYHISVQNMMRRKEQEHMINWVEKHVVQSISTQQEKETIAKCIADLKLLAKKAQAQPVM
# UniProt P19784, whole entry, looked up: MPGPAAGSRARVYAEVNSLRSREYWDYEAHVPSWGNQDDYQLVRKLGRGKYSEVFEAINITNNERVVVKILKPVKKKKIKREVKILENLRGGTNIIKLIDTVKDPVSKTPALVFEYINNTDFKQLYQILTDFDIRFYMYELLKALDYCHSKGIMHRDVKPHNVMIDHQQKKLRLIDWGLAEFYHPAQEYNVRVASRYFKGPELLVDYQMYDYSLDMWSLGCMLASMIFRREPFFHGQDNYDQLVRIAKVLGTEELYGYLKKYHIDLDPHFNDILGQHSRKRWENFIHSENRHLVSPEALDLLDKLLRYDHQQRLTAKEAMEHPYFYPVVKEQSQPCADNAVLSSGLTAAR
# UniProt P30049: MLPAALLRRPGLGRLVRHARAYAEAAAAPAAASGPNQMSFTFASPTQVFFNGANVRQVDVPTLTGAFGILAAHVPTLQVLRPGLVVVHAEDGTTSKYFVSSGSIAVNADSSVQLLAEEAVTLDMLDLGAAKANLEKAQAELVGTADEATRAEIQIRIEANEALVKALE
# UniProt P17844: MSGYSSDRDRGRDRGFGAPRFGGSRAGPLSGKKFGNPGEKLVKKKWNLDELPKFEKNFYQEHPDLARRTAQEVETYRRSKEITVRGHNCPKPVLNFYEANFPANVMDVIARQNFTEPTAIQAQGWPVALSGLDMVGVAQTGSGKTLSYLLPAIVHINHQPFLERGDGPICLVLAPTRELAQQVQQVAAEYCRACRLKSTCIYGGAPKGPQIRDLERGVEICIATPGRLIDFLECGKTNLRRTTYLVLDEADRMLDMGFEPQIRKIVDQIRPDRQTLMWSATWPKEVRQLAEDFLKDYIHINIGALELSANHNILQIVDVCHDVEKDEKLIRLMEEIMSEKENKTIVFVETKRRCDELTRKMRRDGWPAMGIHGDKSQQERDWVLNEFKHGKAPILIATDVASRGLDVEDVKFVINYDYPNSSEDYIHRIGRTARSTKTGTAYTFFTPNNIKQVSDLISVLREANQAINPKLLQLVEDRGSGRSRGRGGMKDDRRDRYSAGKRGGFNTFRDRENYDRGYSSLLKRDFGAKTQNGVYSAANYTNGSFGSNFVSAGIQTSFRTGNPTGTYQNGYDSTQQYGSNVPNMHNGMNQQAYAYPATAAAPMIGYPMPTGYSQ
# UniProt P35240: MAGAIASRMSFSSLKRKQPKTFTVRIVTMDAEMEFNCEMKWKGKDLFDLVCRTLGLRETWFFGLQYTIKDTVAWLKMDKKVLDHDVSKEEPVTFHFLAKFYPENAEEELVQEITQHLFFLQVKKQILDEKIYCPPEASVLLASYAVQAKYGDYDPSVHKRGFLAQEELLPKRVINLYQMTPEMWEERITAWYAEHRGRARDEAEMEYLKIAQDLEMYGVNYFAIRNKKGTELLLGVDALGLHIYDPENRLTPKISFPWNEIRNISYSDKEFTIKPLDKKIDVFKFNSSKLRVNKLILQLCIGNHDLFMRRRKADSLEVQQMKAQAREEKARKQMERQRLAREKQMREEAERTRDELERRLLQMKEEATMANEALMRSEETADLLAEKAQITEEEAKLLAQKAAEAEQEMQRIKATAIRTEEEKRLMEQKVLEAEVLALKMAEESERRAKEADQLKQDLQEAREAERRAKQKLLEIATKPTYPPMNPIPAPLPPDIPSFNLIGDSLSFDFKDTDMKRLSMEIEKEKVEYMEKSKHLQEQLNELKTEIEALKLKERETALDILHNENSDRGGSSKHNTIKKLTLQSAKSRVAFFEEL
# UniProt P34947, whole entry, looked up: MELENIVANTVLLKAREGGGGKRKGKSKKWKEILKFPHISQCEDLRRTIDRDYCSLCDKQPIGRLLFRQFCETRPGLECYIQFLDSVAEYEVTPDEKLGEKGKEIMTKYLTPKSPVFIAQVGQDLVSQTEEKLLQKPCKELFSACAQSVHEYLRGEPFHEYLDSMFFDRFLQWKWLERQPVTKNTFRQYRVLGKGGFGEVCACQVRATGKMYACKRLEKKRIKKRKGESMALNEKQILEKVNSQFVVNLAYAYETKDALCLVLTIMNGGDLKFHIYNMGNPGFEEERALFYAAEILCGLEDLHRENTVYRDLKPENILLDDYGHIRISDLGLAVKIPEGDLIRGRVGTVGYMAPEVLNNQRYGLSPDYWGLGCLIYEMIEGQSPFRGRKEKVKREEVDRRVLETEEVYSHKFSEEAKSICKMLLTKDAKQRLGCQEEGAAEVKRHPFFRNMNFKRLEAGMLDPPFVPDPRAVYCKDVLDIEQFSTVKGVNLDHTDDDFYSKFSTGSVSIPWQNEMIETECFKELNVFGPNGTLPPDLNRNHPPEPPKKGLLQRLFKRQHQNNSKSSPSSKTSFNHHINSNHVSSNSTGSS
# UniProt P17900: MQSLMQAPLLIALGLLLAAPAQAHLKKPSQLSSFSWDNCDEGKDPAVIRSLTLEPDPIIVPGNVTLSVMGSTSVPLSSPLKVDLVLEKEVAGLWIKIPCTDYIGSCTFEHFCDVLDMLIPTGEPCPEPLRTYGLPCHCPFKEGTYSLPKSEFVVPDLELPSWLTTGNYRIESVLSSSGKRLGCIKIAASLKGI
# UniProt P30154, whole entry: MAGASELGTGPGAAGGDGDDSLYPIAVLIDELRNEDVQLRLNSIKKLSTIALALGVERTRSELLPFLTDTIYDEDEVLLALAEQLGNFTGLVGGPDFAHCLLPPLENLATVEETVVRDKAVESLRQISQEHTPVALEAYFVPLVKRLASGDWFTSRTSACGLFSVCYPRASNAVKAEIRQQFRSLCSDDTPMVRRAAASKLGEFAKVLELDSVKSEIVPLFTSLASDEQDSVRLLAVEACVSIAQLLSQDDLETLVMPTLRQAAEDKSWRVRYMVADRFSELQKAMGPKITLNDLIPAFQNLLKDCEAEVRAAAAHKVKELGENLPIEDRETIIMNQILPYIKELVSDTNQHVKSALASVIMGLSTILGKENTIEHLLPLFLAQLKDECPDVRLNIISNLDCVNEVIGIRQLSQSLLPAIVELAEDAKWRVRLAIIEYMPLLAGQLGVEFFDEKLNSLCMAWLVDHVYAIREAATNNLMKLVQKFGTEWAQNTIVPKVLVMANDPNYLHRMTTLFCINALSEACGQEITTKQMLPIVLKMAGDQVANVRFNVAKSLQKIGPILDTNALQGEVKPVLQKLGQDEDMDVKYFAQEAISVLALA
# UniProt P28065: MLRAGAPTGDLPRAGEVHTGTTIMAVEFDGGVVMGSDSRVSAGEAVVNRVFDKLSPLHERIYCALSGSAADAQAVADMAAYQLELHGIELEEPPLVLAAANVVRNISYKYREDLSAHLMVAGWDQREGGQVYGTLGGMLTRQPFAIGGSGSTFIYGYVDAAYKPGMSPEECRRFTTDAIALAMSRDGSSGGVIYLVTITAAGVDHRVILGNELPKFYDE
# ± gives the standard deviation of the averaged measurements. The entries are a selection whose mix differs from that of the whole data set.
# Compound: Nc1ncnc2c1ncn2[C@@H]1O[C@H](COP(=O)(O)OP(=O)(O)OP(=O)(O)O)[C@@H](O)[C@H]1O [adenosine triphosphate]
# Test: NP40-soluble protein abundance relative to vehicle (solubility fold change) (ratio); higher = more soluble protein in presence of ATP
# Outline: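 Eight concentrations, 0.1 to 10 mM, were tested on Jurkat crude lysate for 10 min at room temperature and then 3 min at 37 °C, in three independent experiments. The lysate was solubilised with 0.8% NP40 and benzonase, ultracentrifuged, and the supernatant TMT-labelled for LC-MS/MS. Each value is the fold change against the detergent-processed vehicle in its own replicate, from vsn-normalised intensities.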
Target,NP40-soluble protein abundance (concentration: 1mM),NP40-soluble protein abundance (concentration: 2mM),NP40-soluble protein abundance (concentration: 4mM),NP40-soluble protein abundance (concentration: 6mM),NP40-soluble protein abundance (concentration: 8mM),NP40-soluble protein abundance (concentration: 10mM)
GCHFR (UniProt P30047),1 ± 0.29,0.957 ± 0.27,1.053 ± 0.0042,1 ± 0.0069,0.983 ± 0.32,0.875 ± 0.15
IL2RG (UniProt P31785),0.911 ± 0.082,0.978 ± 0.026,0.975 ± 0.053,0.956 ± 0.067,0.927 ± 0.03,0.939 ± 0.051
DNAJB1 (UniProt P25685),0.9861 ± 0.0058,0.973 ± 0.017,0.912 ± 0.024,0.999 ± 0.027,0.937 ± 0.044,0.925 ± 0.03
RFX1 (UniProt P22670),0.981 ± 0.057,0.992 ± 0.059,1.01 ± 0.052,0.948 ± 0.052,0.973 ± 0.027,0.993 ± 0.02
UniProt P27361,1 ± 0.073,0.995 ± 0.068,0.972 ± 0.015,0.929 ± 0.094,0.979 ± 0.024,0.998 ± 0.031
PSMB6 (UniProt P28072),0.953 ± 0.018,0.89 ± 0.026,0.894 ± 0.044,0.906 ± 0.093,0.911 ± 0.056,0.892 ± 0.058
UniProt P17480 and related entries,1.11 ± 0.041,1.18 ± 0.053,1.28 ± 0.065,1.4 ± 0.12,1.43 ± 0.044,1.6 ± 0.13
GTF2E1 (UniProt P29083),0.9955 ± 0.0051,1.025 ± 0.0042,1.01 ± 0.015,0.965 ± 0.061,0.981 ± 0.03,1.03 ± 0.011
UniProt P26358 and related entries,0.989 ± 0.026,0.988 ± 0.014,0.978 ± 0.021,0.999 ± 0.029,0.992 ± 0.019,0.974 ± 0.017
UniProt P32321 and related entries,0.903 ± 0.13,0.946 ± 0.097,0.905 ± 0.11,0.872 ± 0.18,0.861 ± 0.08,0.893 ± 0.071
DGKA (UniProt P23743),1.16 ± 0.13,1.12 ± 0.094,1.09 ± 0.1,1.06 ± 0.13,1.14 ± 0.075,1.08 ± 0.067
UniProt P24666 and related entries,1.02 ± 0.09,0.982 ± 0.018,0.954 ± 0.05,0.969 ± 0.025,0.954 ± 0.019,0.93 ± 0.056
UniProt P20020 and related entries,1.01 ± 0.094,0.99 ± 0.069,0.985 ± 0.062,1.03 ± 0.079,1.01 ± 0.097,1.02 ± 0.035
CHM (UniProt P24386),1.03 ± 0.027,1.04 ± 0.068,1.02 ± 0.071,0.981 ± 0.095,0.986 ± 0.071,1.03 ± 0.086
UniProt P27824 and related entries,0.938 ± 0.015,0.9225 ± 0.0066,0.88 ± 0.017,0.924 ± 0.028,0.907 ± 0.04,0.905 ± 0.018
UniProt P24539 and related entries,0.973 ± 0.14,0.878 ± 0.07,0.896 ± 0.093,0.902 ± 0.14,0.993 ± 0.082,0.792 ± 0.13
UniProt P19367 and related entries,1.02 ± 0.085,1 ± 0.074,0.991 ± 0.049,0.917 ± 0.11,0.997 ± 0.038,0.987 ± 0.06
UniProt P19784,1.01 ± 0.081,1.02 ± 0.077,0.997 ± 0.067,0.963 ± 0.12,1.11 ± 0.058,1.07 ± 0.051
CKS2 (UniProt P33552),1.032 ± 0.0068,1 ± 0.026,1.02 ± 0.081,1.08 ± 0.027,0.955 ± 0.028,0.957 ± 0.081
PPP2R1A (UniProt P30153),0.964 ± 0.014,0.953 ± 0.022,0.921 ± 0.012,0.917 ± 0.018,0.909 ± 0.023,0.913 ± 0.026

# Quoted from the listing.
# Value of GTF2E1 (UniProt P29083) under NP40-soluble protein abundance (concentration: 8mM): 0.981 ± 0.03
# Value of PPP2R1A (UniProt P30153) under NP40-soluble protein abundance (concentration: 6mM): 0.917 ± 0.018
# Value of UniProt P26358 and related entries under NP40-soluble protein abundance (concentration: 4mM): 0.978 ± 0.021
# Value of RFX1 (UniProt P22670) under NP40-soluble protein abundance (concentration: 8mM): 0.973 ± 0.027

# The list goes on:

Target,NP40-soluble protein abundance (concentration: 1mM),NP40-soluble protein abundance (concentration: 2mM),NP40-soluble protein abundance (concentration: 4mM),NP40-soluble protein abundance (concentration: 6mM),NP40-soluble protein abundance (concentration: 8mM),NP40-soluble protein abundance (concentration: 10mM)
UniProt P17544-2|P17544-4|P17544-6,1.07 ± 0.15,0.948 ± 0.046,0.916 ± 0.029,0.927 ± 0.055,0.855 ± 0.032,0.835 ± 0.052
PSMB5 (UniProt P28074),0.977 ± 0.14,0.953 ± 0.071,0.92 ± 0.042,0.827 ± 0.037,0.932 ± 0.036,0.943 ± 0.077
CBL (UniProt P22681),1 ± 0.03,0.982 ± 0.032,0.99 ± 0.022,0.993 ± 0.032,0.966 ± 0.017,0.976 ± 0.012
UniProt P30049,0.956 ± 0.089,0.919 ± 0.017,0.914 ± 0.056,0.941 ± 0.087,0.947 ± 0.036,0.837 ± 0.011
UniProt P17980 and related entries,0.935 ± 0.018,0.903 ± 0.0097,0.892 ± 0.0091,0.898 ± 0.076,0.903 ± 0.028,0.892 ± 0.055
DDX5 (UniProt P17844),0.98 ± 0.26,1.18 ± 0.043,1.07 ± 0.3,1.51 ± 0.19,1.24 ± 0.34,1.65 ± 0.39
UniProt P35240 and related entries,0.987 ± 0.034,1.01 ± 0.018,0.977 ± 0.01,1.01 ± 0.062,0.93 ± 0.0099,1 ± 0.049
RPL7 (UniProt P18124),1.02 ± 0.088,0.962 ± 0.13,0.968 ± 0.11,0.88 ± 0.17,0.801 ± 0.15,0.927 ± 0.14
UniProt P18433 and related entries,1.04 ± 0.093,1.04 ± 0.095,1.06 ± 0.14,0.987 ± 0.097,1.03 ± 0.13,1.01 ± 0.12
SPR (UniProt P35270),0.905 ± 0.059,0.926 ± 0.085,0.951 ± 0.082,0.856 ± 0.048,0.937 ± 0.071,0.961 ± 0.08
UniProt P20340 and related entries,1.05 ± 0.087,1.02 ± 0.053,1.01 ± 0.069,0.991 ± 0.13,1.04 ± 0.062,0.983 ± 0.066
ABCC1 (UniProt P33527),0.992 ± 0.012,0.9963 ± 0.0072,0.9825 ± 0.008,0.981 ± 0.0096,0.968 ± 0.011,0.97 ± 0.033
ITPKB (UniProt P27987),0.929 ± 0.038,0.988 ± 0.035,0.942 ± 0.034,1.04 ± 0.083,0.93 ± 0.12,1.01 ± 0.058
UniProt P27540 and related entries,0.991 ± 0.028,1.01 ± 0.024,0.989 ± 0.011,0.991 ± 0.03,0.947 ± 0.016,0.986 ± 0.036
RPL22 (UniProt P35268),0.985 ± 0.042,1 ± 0.028,1.03 ± 0.083,1.01 ± 0.056,1.01 ± 0.07,1.26 ± 0.14
GRK5 (UniProt P34947),1.2281 ± 0.00061,1.275 ± 0.0056,1.2 ± 0.014,1.273 ± 0.0066,1.31 ± 0.023,1.34 ± 0.11
UniProt P20701 and related entries,0.9695 ± 0.0081,0.986 ± 0.034,0.946 ± 0.036,0.94 ± 0.012,0.934 ± 0.054,0.945 ± 0.015
PTPN1 (UniProt P18031),0.982 ± 0.086,0.98 ± 0.088,0.947 ± 0.057,0.924 ± 0.11,0.957 ± 0.053,0.952 ± 0.062
DDX6 (UniProt P26196),0.999 ± 0.023,0.992 ± 0.034,0.981 ± 0.02,0.998 ± 0.078,1.01 ± 0.011,1.05 ± 0.024
UniProt P18858 and related entries,0.9618 ± 0.0083,0.971 ± 0.02,0.9564 ± 0.0082,0.961 ± 0.036,0.948 ± 0.018,0.947 ± 0.03

Target,NP40-soluble protein abundance (concentration: 1mM),NP40-soluble protein abundance (concentration: 2mM),NP40-soluble protein abundance (concentration: 4mM),NP40-soluble protein abundance (concentration: 6mM),NP40-soluble protein abundance (concentration: 8mM),NP40-soluble protein abundance (concentration: 10mM)
UQCRC2 (UniProt P22695),0.949 ± 0.041,0.937 ± 0.031,0.905 ± 0.025,0.894 ± 0.04,0.902 ± 0.017,0.918 ± 0.035
GM2A (UniProt P17900),0.972 ± 0.084,0.982 ± 0.053,0.961 ± 0.053,0.965 ± 0.03,0.971 ± 0.045,0.892 ± 0.093
RFC4 (UniProt P35249),1.18 ± 0.04,1.23 ± 0.04,1.26 ± 0.048,1.32 ± 0.055,1.3 ± 0.032,1.26 ± 0.031
UniProt P19838 and related entries,1.02 ± 0.045,1.02 ± 0.039,0.966 ± 0.035,0.979 ± 0.034,0.987 ± 0.042,0.965 ± 0.035
UniProt P31948 and related entries,1.01 ± 0.24,0.943 ± 0.086,0.911 ± 0.2,0.986 ± 0.099,0.996 ± 0.048,0.823 ± 0.047
UniProt P22033,0.994 ± 0.017,0.985 ± 0.044,0.958 ± 0.034,0.958 ± 0.077,0.964 ± 0.045,0.939 ± 0.058
UniProt P30154 and related entries,0.941 ± 0.017,0.956 ± 0.026,0.937 ± 0.018,0.935 ± 0.016,0.913 ± 0.016,0.903 ± 0.056
ICAM3 (UniProt P32942),0.946 ± 0.043,0.925 ± 0.018,0.921 ± 0.027,0.975 ± 0.029,0.876 ± 0.044,0.853 ± 0.049
PRDX6 (UniProt P30041),0.966 ± 0.026,0.958 ± 0.03,0.919 ± 0.029,0.89 ± 0.074,0.955 ± 0.056,0.885 ± 0.07
TFE3 (UniProt P19532),1 ± 0.065,0.999 ± 0.084,1.04 ± 0.073,0.961 ± 0.013,0.967 ± 0.11,0.908 ± 0.1
LMNB1 (UniProt P20700),0.877 ± 0.097,0.986 ± 0.17,0.866 ± 0.11,1.1 ± 0.16,0.91 ± 0.16,1.1 ± 0.083
RPL12 (UniProt P30050),0.929 ± 0.059,0.918 ± 0.074,0.88 ± 0.077,0.85 ± 0.075,0.745 ± 0.057,0.846 ± 0.04
PSMB9 (UniProt P28065),0.963 ± 0.012,0.98 ± 0.032,0.956 ± 0.042,0.912 ± 0.036,0.92 ± 0.04,0.958 ± 0.014
MYH9 (UniProt P35579),0.98 ± 0.11,0.983 ± 0.07,0.921 ± 0.074,1.03 ± 0.064,0.976 ± 0.059,0.903 ± 0.059
CORO1A (UniProt P31146),1.05 ± 0.022,1.04 ± 0.035,1.02 ± 0.015,1.06 ± 0.036,1.05 ± 0.03,1.04 ± 0.054
UniProt P20023 and related entries,0.996 ± 0.096,1.02 ± 0.059,1.06 ± 0.057,1.04 ± 0.075,0.962 ± 0.016,0.965 ± 0.096
PSMB8 (UniProt P28062),0.933 ± 0.063,0.912 ± 0.027,0.9009 ± 0.0072,0.84 ± 0.0097,0.949 ± 0.035,0.943 ± 0.046
UniProt P32189 and related entries,1.06 ± 0.11,1.04 ± 0.13,1.03 ± 0.086,0.988 ± 0.089,1.01 ± 0.033,1.06 ± 0.079
POLR2E (UniProt P19388),1.09 ± 0.041,1.082 ± 0.0086,1.11 ± 0.027,1.04 ± 0.023,1.14 ± 0.042,1.09 ± 0.017
UniProt P31327 and related entries,1.07 ± 0.044,1.08 ± 0.12,1.02 ± 0.077,0.98 ± 0.086,1 ± 0.14,1 ± 0.061
